Assay results taken from the supplement of paper PMC3334620.
Over roughly 33,000 sequences, “E-score (-0.5 to 0.5)” has its median near -0.0034; the highest 2% begin near 0.25. Some of the results follow.

biological target: T1, Yap3 (UniProt P38749); experiment: PBM E-score (8-mer binding enrichment) (E-score (-0.5 to 0.5)); higher = stronger / more preferred TF binding; conditions: protein concentration: 100 nM; construct: GST-full length
T1 sequence: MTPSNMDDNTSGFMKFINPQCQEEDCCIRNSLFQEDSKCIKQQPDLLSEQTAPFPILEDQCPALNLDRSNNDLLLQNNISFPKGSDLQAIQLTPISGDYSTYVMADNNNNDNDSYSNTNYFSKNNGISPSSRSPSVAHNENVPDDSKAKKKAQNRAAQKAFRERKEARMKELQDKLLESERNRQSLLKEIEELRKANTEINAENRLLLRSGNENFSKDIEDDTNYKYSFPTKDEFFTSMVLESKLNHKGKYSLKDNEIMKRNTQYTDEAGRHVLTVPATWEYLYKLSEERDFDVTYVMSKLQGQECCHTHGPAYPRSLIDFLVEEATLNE
Method in brief: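 GST-tagged yeast TFs (full-length or DNA-binding domain) were made by PURExpress in vitro transcription/translation and applied at about 100-200 nM to universal all-10-mer Agilent arrays. The arrays were made double-stranded by primer extension, on fresh or once-stripped slides. Bound protein was detected with fluorescent anti-GST, and scans were normalised with masliner. Each ungapped eight-base word, pooled with its reverse complement, received an E-score (modified Wilcoxon-Mann-Whitney statistic) from the Universal PBM Analysis Suite.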

Sequence	PBM E-score
CCAATCGG	-0.0517
ACCGAGCC	-0.0471
AGGACACT	-0.208
AGCAATCG	0.167
CAATTGGG	-0.0642
GACTGGCA	-0.298
ACCCAATC	0.0372
AGAACCAA	0.0511
AGGATTGA	0.129
CTGGGCGC	-0.229
AGAAGGAG	-0.173
CCCGCTCA	-0.117
ATGGCCGG	-0.0591
GAGTGATA	0.13
AACGCCAA	0.0473
GGAACCCA	-0.0711
CATTCCAG	-0.117
ATGTGGCC	0.00028
AGTGTGGC	0.105
CATTGTTA	0.146
CTCTCTGA	-0.15
CTAACCGA	-0.0167
ATCTTGTC	0.0814
CCTTCGCG	0.0288
CATTATGG	-0.00868

Sequence	PBM E-score
CGCATGGA	-0.109
ATACGGTC	-0.0146
ATTGGTTC	0.131
ATTGCGCA	0.0929
TACCACGA	-0.0297
CGAAGCTC	-0.299
GGACTCGA	-0.128
GATCGAGA	-0.0834
CAAAACCG	0.00322
CGACACAC	0.0631
CGGAATGA	0.127
AGACAGAG	-0.101
ATGCAGCC	-0.0399
AAGCGAGG	0.0466
ACTACTTC	-0.0154
CAGTCTAC	-0.192
CGGCAACC	-0.213
AGGGAAAT	0.124
AGGCGCAG	-0.278
GATATATA	0.271
CGCTATGC	-0.127
TGCTCTAA	-0.0432
GCCATTCC	-0.183
ATTCTGTG	0.0716
GGCTTCTA	-0.0586

Sequence	PBM E-score
ACACCACC	-0.209
GGTATAAA	0.239
CCTTCATC	-0.195
GAATGCTA	-0.0399
GACCGCTA	-0.212
TAACATAA	0.337
GGTACCTA	-0.123
CGATTAGA	0.111
ATCAGATA	0.093
CGGATAGA	0.0808
CCCACAGA	-0.107
GTGGTGGA	-0.143
AGACTAGG	-0.108
AACCTCGT	-0.0264
ATCTTAGG	-0.0438
TCTATACA	-0.0211
CAAGCGTG	0.0177
GACTAAAC	-0.143
CGCTCCGA	-0.0344
ACAATGGA	0.232
ACGCTTCC	-0.164
CTGTACTC	-0.0104
CGACTGAA	-0.127
ACCCCCCA	-0.392
AATCCGAC	0.083

As entered above:
Value for AGACTAGG under PBM E-score: -0.108
Value for GGTATAAA under PBM E-score: 0.239
Value for CCTTCATC under PBM E-score: -0.195
Value for GACCGCTA under PBM E-score: -0.212
Value for ACGCTTCC under PBM E-score: -0.164
Value for CGATTAGA under PBM E-score: 0.111
Value for ATCAGATA under PBM E-score: 0.093

(cont.)

Sequence	PBM E-score
AGTGGGCG	-0.0685
CGTACTAA	0.159
GAAAGATA	0.217
GGTGGCCA	-0.0595
TCTCTTAA	0.0795
AAACATGA	0.128
ACCGGTAG	-0.115
CTTTGACA	0.0503
CACCAGCC	-0.18
ACGGATAC	0.221
TATAGCGA	0.00354
CTTCGCAA	-0.0143
GGGCCATA	-0.151
AATAATCG	0.107
GCTCATAA	0.108
ATCAGGTC	-0.0386
AGTGTCCC	-0.0809
GATGGGTA	0.0638
AAAGTGGC	-0.0557
ATGATAAT	0.201
ATGCTCGA	0.086
CCGTCCCA	-0.141
CACAAGTC	-0.135
GGCCTGGA	-0.275
ACGGGGAC	-0.211

Part of the list above, with bars between the fields.
Sequence | PBM E-score
ATGGCCGG | -0.0591
GAGTGATA | 0.13
AACGCCAA | 0.0473
GGAACCCA | -0.0711

Next results

Sequence	PBM E-score
GAAAGAAC	0.129
CGTTGACA	0.00207
AGGAAGAA	0.0113
AGCTTTAC	-0.0481
AGATAACC	-0.0141
ACTACCAA	-0.1
ACCGCGGA	0.0221
GCCCAGCA	-0.301
CAGAGACG	-0.0347
AGTGAGAG	-0.0512
AGCTCGAC	-0.00238
CCCAGGCC	-0.294
ATTACCTA	0.211
AGTTATAG	0.148
ATCTTCCA	-0.0569
GCCTGTAA	-0.113
ATATCTAC	0.211
GCGACTAA	0.0907
CGGTTGTC	0.0466
CTTGGCCA	-0.126
ACGTTTGA	0.178
GCCAGAAC	-0.0153
CTTGGCAC	-0.101
ATATAGCC	0.181
CGGGTAGC	-0.27

Sequence	PBM E-score
CGGGTGCC	-0.162
CTTGACCA	0.0113
CGCGTTGC	0.169
AGTTTTAC	0.116
ATGGCACC	-0.14
ACGTGGTG	-0.0978
AGAATTCG	-0.00938
TGTTTGAA	0.0701
GGGGGTCA	-0.445
AGATAGAG	0.104
CAAGTTCC	-0.0855
GGCCCCGA	-0.248
GAACCAGA	-0.13
CGGTCAAG	0.0378
AAGTAGCG	-0.0947
ACGCATCA	0.114
CAGTTGAA	-0.0326
ACTGTAAC	0.0996
AAAAGGGA	0.0232
AAACACTA	0.198
GTATACCA	0.0641
CGGCTAAA	0.137
GACGCGTC	-0.202
GTTCCGTA	0.122
ACTAGAAG	-0.0283

Sequence	PBM E-score
AGGATGCG	-0.0348
CTCCCCGC	0.119
AGGAAGTA	0.00039
AAAAAGAT	0.147
CCTAACGA	-0.0689
AACATGCG	0.0668
AACCCGAG	-0.0401
CTCGCCGC	-0.0489
CGTAGAGA	0.00862
ACCGGAGA	0.0527
GCCCTCAA	-0.139
CTGTCGTA	0.0338
CGATATAC	0.0779
GGTCCCTA	-0.116
CGCGTTGA	-0.0193
CCGAAGAC	-0.0282
GGAAGCCC	-0.334
CTCTAGCC	-0.204
ATCCAGGC	-0.138
CAATTCGC	0.238
GCGTACCC	-0.161
AGGAGACA	0.102
CTGGGTTC	-0.0258
GTAAGAGA	0.00971
ACCTTTAT	-0.0322

Sequence	PBM E-score
GTCTAAGA	0.0273
GTAGGTTA	0.0693
GCATCGGC	-0.193
GGCGGAGA	-0.0553
ATCCACGC	-0.117
GTAATGAC	0.0925
CTCTATTC	0.0496
GTTTTACA	0.0198
CTTCTCAA	-0.0635
CACTGCGA	0.0223
ACGTGCTA	0.0232
AGTAATGG	0.179
ATGGTTGG	-0.109
GAACCTTA	0.155
AGGACCCG	-0.109
ATTTCGTG	0.109
CTTGTAAA	0.107
GCAGGGAA	0.049
CTTCTACA	0.0486
CGCCAACA	0.0908
GGGGAGGA	-0.273
AAAACCGT	0.0377
AGCTTCCT	-0.0053
AATCGGAA	0.211
GAGTATCA	-0.0124

Sequence	PBM E-score
TCGCATCA	0.0999
CAGTAGTA	0.0225
ATGATCAG	0.0252
AAGTGCTC	-0.204
CTCAGTGA	-0.0771
GCTGTAGA	-0.0692
ACAATTCT	0.0509
ATGTGAAA	0.134
ACCACCAA	0.0182
ATTTGTAA	0.373
AATATATA	0.229
CAGCCCTA	0.00827
CTAACAGC	-0.0488
AACGCAGT	-0.0967
ATAGCCGA	0.074
TCGTCCCA	-0.0108
GGGATCTA	-0.0775
ATGCTGTA	0.0217
GAGTATCC	0.00458
